Earlier results in patent publication US4376116A, “Polyamine biosynthesis inhibitors” (Research Corporation, priority 1981, dated 1983).
For at least one compound, name, drawing or mass did not settle the structure.

Test system: spermine synthase
Settings: demonstrated previously; cited from earlier work

C[S+](CC[C@H](N)C(=O)O)C[C@H]1O[C@@H](n2cnc3c(N)ncnc32)[C@H](O)[C@@H]1O (stereo partly drawn) [S-adenosyl-L-methionine]
inhibition of spermine synthase (in words): generally inhibited
